Measured values published in US10925969B2, “Anti-BCMA polypeptides and proteins” (priority 2015, dated 2021).
Some of these results come from one statement about several compounds together.

Test system: H929
Assay: WST assay of immunotoxin activity
Type: cell-based
Procedure: The activity of the anti-BCMA immunotoxins against BCMA-expressing cell lines and cells from four multiple myeloma patients was tested by WST assay.

B1: LMB70: anti-BCMA immunotoxin BM306-Fab-LR-GGS (conjugate)
VH: EVQLQQSGPELVKPGASVKISCKTSGYTFTEYTINWVKQSHGKSLEWIGDIYPDNYNIRYNQKFKGKATLTVDKSSSTAYMELRSLSSEDSAIYYCANHDFFVFWGQGTLVTVSA
VL: DIQMTQATSSLSASLGDRVTINCRTSQDISNHLNWYQQKPDGTVKLLIYYTSRLQSGVPSRFSGSGSGTDYSLTISNLEQEDIGTYFCHQGNTLPPTFGGGTKLEIK
modifications: left off: another chain or arm of the molecule; a dimerising Fc or GST; small tags and cut ends
notes: anti-BCMA immunotoxin BM306-Fab-LR-GGS
IC50: 1.0 to 1.5 ng/mL
